Laboratory results from article PMC3396687 (PLoS ONE, 2012).

Assay: peptide made by a vendor
Settings: whole synthesis, HPLC peak area %

Row | Sequence | purity (crude or final not stated) [%]
1 | KFLNRFWHWLQLKPGQPMY | 96.0871
2 | KFWKRFWHWLQLKPGQPMY | 99.3
3 | RKLQKFWHWLQLKPGQPMY | 98.4
4 | RRLKDFWHWLQLKPGQPMY | 99.1

Plain letter strings leave the end groups untold.
